Test results: PubChem BioAssay AID1688 (National Center for Advancing Translational Sciences (NCATS), 2009)
Hit rate of the full screen: of about 220,000 compounds, about 2,400 (1.1%) were called active. Inconclusive means that the source gave no clear call. Such entries were picked first, then a sample of the others. Calls follow the shape of the dose curve; as a rule, active = well fitted inhibition curve with a large enough effect; inconclusive = small, poorly fitted or top-dose-only effect, or effect the other way; inactive = no such curve, though single readings can be large or run the other way. A potency beside an inconclusive call is a rough fit, not a confirmed value.
% is scaled to controls: 0 for no effect and ±100 for the full control effect; potency is read from the fitted curve at half-maximal effect.

Test: qHTS Multiplex Assay to Identify Dual Action Probes in a Cell Model of Huntington: Aggregate Formation (GFP); also: nearly all actives have a fitted effect of over 60% in size
Conditions: PC12 HttQ103-GFP aggregates, Acumen cytometry, 40 h; activity change, negative = inhibition: at 46.1 µM (top of the series) unless noted
Procedure, shortened: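 Compounds (qHTS titration) were added to PC12 cells expressing an ecdysone-driven HTT exon 1 Q103–GFP fusion after induction with 100 nM tebufenozide. Aggregate formation was measured as GFP objects in cell lysates.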
In the case of CN(C)S(=O)(=O)c1ccc(C(=O)Nc2ccc(CN3CCCC3)cc2)cc1, the Potency is reported as “inactive”.
With CCCOc1ccc(CSc2nc3ccccc3[nH]2)cc1 the Potency was active: 7.94 µM.
For Cc1cc(CNC(=O)COc2ccccc2)c2ccccc2n1, the Potency was inconclusive: 22.4 µM [inhibitor, single point].
With CCCC(=O)N1CCN(c2ccc(NC(=O)c3cc4ccccc4o3)cc2Cl)CC1 the Potency was active: 11.2 µM.
For CC(OC(=O)CCc1nc2ccccc2c(=O)[nH]1)C(=O)c1ccc(Br)cc1 (stereo not given), the Potency was inconclusive: 0.0355 µM [inhibitor, full curve, poor fit].
For CCOC(=O)Nc1nc(-c2ccccc2)c(C(=O)c2ccccc2)s1, the Potency was inconclusive: 3.98 µM [inhibitor, full curve].
For Cc1cccc(OCC(=O)Nc2nc3ccc([N+](=O)[O-])cc3s2)c1, the Potency was inconclusive: 35.5 µM [inhibitor, single point].
For CC(=O)Nc1ccc2c(c1)nc(CCN1CCC(C)CC1)n2C, the Potency was “inactive”.
In the case of CCOc1ccc(Br)cc1C(=O)Nc1ccc(C(=O)NCC(C)C)cc1, the Potency is reported as “inactive”.
With S=C(Nc1ccc(Cl)cc1)NN1CCOCC1 the Potency was inconclusive: 0.562 µM [activator, full curve, poor fit].
In the case of COc1ccc(CCNC(=O)C/C(C)=N/NC(=O)C(c2ccccc2)c2ccccc2)cc1OC, the activity change, negative = inhibition is reported as inactive: 16% [at 9.22 µM].
For C/C(=C\c1ccco1)C1Nc2cccc3cccc(c23)N1, the Potency was inconclusive: 5.62 µM [activator, single point].
For COC(=O)C(C)N(C(=O)c1ccc(C(=O)c2ccccc2)cc1)c1c(C)cccc1C (stereo not given), the Potency was inconclusive: 12.6 µM [inhibitor, partial curve].
With COc1cc2nc(SCc3ccc(Cl)cc3Cl)n(Cc3cccs3)c(=N)c2cc1OC the Potency was inconclusive: 35.5 µM [inhibitor, single point].
For CCc1ccc(-c2nn(-c3ccccc3)cc2CSC(=N)N)cc1, the Potency was active: 17.8 µM.
In the case of Cc1ccc(C2C(C(N)=S)=C(N)OC3=C2C(=O)CC(C)(C)C3)cc1 (stereo not given), the Potency is reported as “inactive”.
In the case of O=c1oc(-c2ccccc2Cl)nc2ccsc12, the Potency is reported as inconclusive: 11.2 µM [activator, single point].
With CCC(C(=O)Nc1ccccc1-c1ccccc1)c1ccccc1 (stereo not given) the Potency was “inactive”.
For Cn1c(O)c(N=NC(=O)c2cccc(S(=O)(=O)N3CCCCC3)c2)c2ccccc21, the Potency was inconclusive: 11.2 µM [inhibitor, single point].
With O=C(CSc1ncn[nH]1)Nc1nsc(-c2ccccc2)n1 the Potency was inconclusive: 6.31 µM [inhibitor, partial curve].
With Cc1[nH]c2ccccc2c1C1=NNC(=Nc2ccc(F)cc2)SC1 the Potency was inconclusive: 35.5 µM [inhibitor, single point].
For Cc1c(Br)c(=O)oc2c(Br)c(O)ccc12, the Potency was inconclusive: 25.1 µM [inhibitor, single point].
With O=C1N2CCSC2=NC1(Nc1ccccn1)C(F)(F)F (stereo not given) the Potency was inconclusive: 35.5 µM [inhibitor, single point].
In the case of O=C(O)C1CCCN1c1ncnc2ccccc12 (stereo not given), the Potency is reported as “inactive”.
For CCOC(=O)Cc1nn2c(=O)cc(C)nc2s1, the Potency was inconclusive: 35.5 µM [inhibitor, single point].
For S=C(c1cn(CCOc2ccccc2)c2ccccc12)N1CCCC1, the Potency was inconclusive: 22.4 µM [inhibitor, single point].
With Cc1cc(OCCSc2nnc(-c3cccs3)n2C)ccc1Cl the Potency was inconclusive: 25.1 µM [inhibitor, single point].
With COc1cc(C(C(=O)NC2CCCCC2)N(Cc2cccs2)C(=O)Cc2c[nH]c3ccccc23)cc(OC)c1OC (stereo not given) the Potency was inconclusive: 28.2 µM [inhibitor, single point].
In the case of Cc1ccc(S(=O)(=O)N=Nc2c(O)[nH]c3ccccc23)cc1C, the Potency is reported as “inactive”.
For Cc1cc(Cl)ccc1NC(=O)NC1CCN(S(=O)(=O)c2ccc(F)cc2)CC1, the Potency was inconclusive: 25.1 µM [inhibitor, single point].
With O=C(N/N=C/c1ccccc1O)/C(=C/c1ccccc1)CCO the Potency was active: 7.94 µM.
In the case of O=C(CCN1CCCCC1)NCC1OCCc2ccccc21 (stereo not given), the Potency is reported as “inactive”.
With COc1cccc(NC(=O)Nc2nnc(N3CCCCC3C)s2)c1 (stereo not given) the Potency was inconclusive: 35.5 µM [inhibitor, single point].
For COc1cc(NS(=O)(=O)c2ccc(N/C=C\C(=O)c3ccc(F)cc3)cc2)nc(OC)n1, the Potency was inconclusive: 17.8 µM [activator, single point].
With O=C1C(=O)N(Cc2cccnc2)C(c2ccccn2)/C1=C(/O)c1ccc(F)cc1 (stereo not given) the Potency was inconclusive: 31.6 µM [activator, single point].
In the case of CCCC(=O)NC(=S)Nc1ccc(N2CCN(C(=O)c3cccs3)CC2)cc1, the Potency is reported as inconclusive: 35.5 µM [inhibitor, single point].
In the case of O=C(Nc1nc2c(s1)CCCC2)c1cccc(S(=O)(=O)N2CCCc3ccccc32)c1, the Potency is reported as inconclusive: 14.1 µM [inhibitor, single point].
With O=C(CN1C(=O)c2cccc3cccc1c23)Nc1ccc(S(=O)(=O)N2CCOCC2)cc1 the Potency was “inactive”.
With CCOC(=O)Cc1c(C)nc2c(-c3ccccc3)c[nH]n2c1=O the Potency was inconclusive: 28.2 µM [inhibitor, partial curve].
In the case of CCN(Cc1ccccc1)c1ccc(/C=N/NC(=S)NC(C)C)cc1, the Potency is reported as inconclusive: 35.5 µM [inhibitor, single point].
For CCc1ccc(C2C(C(=O)O)c3ccccc3C(=O)N2C)cc1 (stereo not given), the Potency was inconclusive: 17.8 µM [activator, partial curve].
For Cc1[nH]nc2cn[nH]c12, the Potency was inconclusive: 8.91 µM [inhibitor, partial curve].
In the case of CCCCCCCCCCCC(=O)NC(Cc1ccc(OC)c([N+](=O)[O-])c1)C(=O)O (stereo not given), the activity change, negative = inhibition is reported as inactive: 12.5% [at 9.22 µM].
For O=C(Nc1nccs1)c1ccc(Cl)cc1[N+](=O)[O-], the Potency was “inactive”.
For CC(=O)Nc1ccc(N2C(=O)CSC2c2cccc([N+](=O)[O-])c2)cc1 (stereo not given), the Potency was inconclusive: 3.16 µM [activator, full curve, poor fit].
In the case of CCCn1c(NC(=O)c2cccc(S(=O)(=O)N3CCCC3)c2)nc2ccccc21, the Potency is reported as active: 11.2 µM.
For O=C(c1cccs1)N(Cc1nc2sc3c(c2c(=O)[nH]1)CCCC3)C1CCCC1, the Potency was inconclusive: 31.6 µM [inhibitor, single point].
With CCCCCCCOC(=O)C1=C(C)Nc2ncnn2C1c1cccs1 (stereo not given) the Potency was inconclusive: 22.4 µM [inhibitor, single point].
In the case of O=C(C1CCC1)N1CCc2cc(S(=O)(=O)Nc3ccc4c(c3)OCO4)ccc21, the Potency is reported as inconclusive: 12.6 µM [inhibitor, partial curve].
For O=[N+]([O-])c1ccccc1-c1cc(-c2ccccc2O)n[nH]1, the Potency was “inactive”.
In the case of CS(=O)(=O)N(CC(=O)NCCSC1CCCCC1)c1ccc2c(c1)OCO2, the Potency is reported as “inactive”.
In the case of Cc1ccc(NC(=O)N2CCN(Cc3ccc4c(c3)OCO4)CC2)cc1, the Potency is reported as inconclusive: 5.62 µM [inhibitor, single point].
For COC(=O)[C@H](C)NC(=O)Nc1cc(OC)ccc1OC, the Potency was inconclusive: 0.794 µM [inhibitor, single point].
In the case of S=C(Nc1ccc(Nc2ccccc2)cc1)Nc1ccccn1, the activity change, negative = inhibition is reported as inactive: 2.71% [at 9.22 µM].
For CCCCCn1c(N2CCN(c3cccc(Cl)c3)CC2)nc2c1c(=O)[nH]c(=O)n2C, the activity change, negative = inhibition was inactive: 15.6% [at 9.22 µM].
For COC(=O)C1=C(O)C(C(=O)OC)C(c2ccc(C)cc2)C(C#N)(C#N)C1c1ccc(C)cc1 (stereo not given), the Potency was inconclusive: 7.94 µM [inhibitor, partial curve].
In the case of COC(=O)c1cc2c(ccn2-c2ccc(F)cc2)n1CC(=O)N1CCN(C(=O)c2ccco2)CC1, the Potency is reported as inconclusive: 12.6 µM [activator, single point].
For O=C(O)C1C2C=CC(CC2)C1C(=O)O (stereo not given), the Potency was “inactive”.
For CCCCNC(=S)Nc1ccc(SC(F)F)cc1, the Potency was inconclusive: 25.1 µM [inhibitor, single point].
For CCSc1cc(N2CCCC2)nc(-c2ccccc2)n1, the Potency was inconclusive: 17.8 µM [inhibitor, partial curve].
In the case of CN1CCCN(C(=O)Cc2c(Cl)cccc2Cl)c2nc3ccccc3nc21, the Potency is reported as inconclusive: 35.5 µM [inhibitor, single point].
For CCn1c2c(c(C)cc1=O)C(=O)CC(C)(C)C2, the Potency was inconclusive: 7.08 µM [inhibitor, partial curve].
In the case of O=C(O)c1ccc(Cl)c(S(=O)(=O)NC(Cc2ccccc2)C(=O)O)c1 (stereo not given), the Potency is reported as inconclusive: 11.2 µM [activator, partial curve, poor fit].
In the case of O=C1c2cccc(OCC(=O)N3CCCc4ccccc43)c2CCN1Cc1cccnc1, the Potency is reported as inconclusive: 8.91 µM [inhibitor, partial curve].
In the case of COc1cccc(NC(=O)C(OC(=O)c2ccccc2NS(=O)(=O)c2cccs2)c2ccccc2)c1 (stereo not given), the Potency is reported as inconclusive: 3.16 µM [inhibitor, partial curve].
For COc1cc(S(=O)(=O)N(C)C2CCCCC2)c(C)cc1C, the Potency was inconclusive: 8.91 µM [inhibitor, partial curve].
For O=C1CCCC2=C1C(Cc1ccccc1)C1=C(CCCC1=O)O2, the Potency was inconclusive: 1 µM [inhibitor, full curve, poor fit].
For O=C(Nc1ccccc1)Nc1nccs1, the Potency was “inactive”.
In the case of COc1cccc(NC(=S)N2CCN(Cc3ccccc3)CC2)c1, the Potency is reported as inconclusive: 0.0316 µM [inhibitor, full curve, poor fit].
In the case of CCc1ccc(NC(=O)CSC2=C(C#N)C(c3ccco3)C3=C(CCCC3=O)N2)cc1 (stereo not given), the Potency is reported as “inactive”.
